Laboratory results as given in patent US9254299B2, “Administration of hypoxia activated prodrugs in combination with Chk1 inhibitors for treating cancer” (THRESHOLD PHARMACEUTICALS, INC., priority 2011, dated 2016).
Some of these results come from one statement about several compounds together.

System: HT29 cells
Experiment: Single-cell electrophoresis Comet assay
Type: cell-based
Settings: HT29, 24 hr, AZD7762 0.1 μM with air

Compound `NC(=O)Nc1cc(-c2cccc(F)c2)sc1C(=O)N[C@H]1CCCNC1` [AZD7762] has an olive tail moment of 0.1 to 0.3.
